These are yes or no findings as the source states them, for the method shown. Binding seen in cells or lysates may run through a third protein. A yes stands for co-enrichment or nearness to the bait. Other partners may have been found. Tags and fused reporters may be left off the sequences shown.
T1: SH-tagged MANF (pre-SH-MANF), expressed in HEK293 cells (human) (UniProt P55145)
T1 sequence: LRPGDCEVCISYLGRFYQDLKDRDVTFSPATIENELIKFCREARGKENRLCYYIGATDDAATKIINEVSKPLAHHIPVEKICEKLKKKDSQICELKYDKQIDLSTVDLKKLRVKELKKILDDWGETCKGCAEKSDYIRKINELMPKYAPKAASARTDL


These binders were tested against T1, SH-tagged MANF (pre-SH-MANF), expressed in HEK293 cells (human) (assay: affinity purification with mass spectrometry; SH-tagged MANF as bait from doxycycline-induced HEK293 pre-SH-MANF cells; HENN lysis buffer (50 mM Hepes-NaOH pH 8.0, 5 mM EDTA, 150 mM NaCl, 50 mM NaF, 0.5% NP40); Strep-Tactin beads, biotin elution; GFP-SH cells as negative control; FDR <= 0.001, s0 = 2).

binding | Binder
binds | neutral alpha-glucosidase AB, endogenous in HEK293 (protein, UniProt Q14697 29-944) ITLAVDRSNFKTCEESSFCKRQRSIRPGLSPYRALLDSLQLGPDSLTVHLIHEVTKVLLVLELQGLQKNMTRFRIDELEPRRPRYRVPDVLVADPPIARLSVSGRDENSVELTMAEGPYKIILTARPFRLDLLEDRSLLLSVNARGLLEFEHQRAPRVSQGSKDPAEGDGAQPEETPRDGDKPEETQGKAEKDEPGAWEETFKTHSDSKPYGPMSVGLDFSLPGMEHVYGIPEHADNLRLKVTEGGEPYRLYNLDVFQYELYNPMALYGSVPVLLAHNPHRDLGIFWLNAAETWVDISSNTAGKTLFGKMMDYLQGSGETPQTDVRWMSETGIIDVFLLLGPSISDVFRQYASLTGTQALPPLFSLGYHQSRWNYRDEADVLEVDQGFDDHNLPCDVIWLDIEHADGKRYFTWDPSRFPQPRTMLERLASKRRKLVAIVDPHIKVDSGYRVHEELRNLGLYVKTRDGSDYEGWCWPGSAGYPDFTNPTMRAWWANMFSYDNYEGSAPNLFVWNDMNEPSVFNGPEVTMLKDAQHYGGWEHRDVHNIYGLYVHMATADGLRQRSGGMERPFVLARAFFAGSQRFGAVWTGDNTAEWDHLKISIPMCLSLGLVGLSFCGADVGGFFKNPEPELLVRWYQMGAYQPFFRAHAHLDTGRREPWLLPSQHNDIIRDALGQRYSLLPFWYTLLYQAHREGIPVMRPLWVQYPQDVTTFNIDDQYLLGDALLVHPVSDSGAHGVQVYLPGQGEVWYDIQSYQKHHGPQTLYLPVTLSSIPVFQRGGTIVPRWMRVRRSSECMKDDPITLFVALSPQGTAQGELFLDDGHTFNYQTRQEFLLRRFSFSGNTLVSSSADPEGHFETPIWIERVVIIGAGKPAAVVLQTKGSPESRLSFQHDPETSVLVLRKPGINVASDWSIHLR
binds | protein disulfide isomerase family A member 6 (PDIA6), endogenous in HEK293 (protein, UniProt Q15084 20-440) LYSSSDDVIELTPSNFNREVIQSDSLWLVEFYAPWCGHCQRLTPEWKKAATALKDVVKVGAVDADKHHSLGGQYGVQGFPTIKIFGSNKNRPEDYQGGRTGEAIVDAALSALRQLVKDRLGGRSGGYSSGKQGRSDSSSKKDVIELTDDSFDKNVLDSEDVWMVEFYAPWCGHCKNLEPEWAAAASEVKEQTKGKVKLAAVDATVNQVLASRYGIRGFPTIKIFQKGESPVDYDGGRTRSDIVSRALDLFSDNAPPPELLEIINEDIAKRTCEEHQLCVVAVLPHILDTGAAGRNSYLEVLLKLADKYKKKMWGWLWTEAGAQSELETALGIGGFGYPAMAAINARKMKFALLKGSFSEQGINEFLRELSFGRGSTAPVGGGAFPTIVEREPWDGRDGELPVEDDIDLSDVELDDLGKDEL
binds | protein disulfide isomerase family A member 4, endogenous in HEK293 (protein, UniProt P13667 21-645) VAGAEGPDEDSSNRENAIEDEEEEEEEDDDEEEDDLEVKEENGVLVLNDANFDNFVADKDTVLLEFYAPWCGHCKQFAPEYEKIANILKDKDPPIPVAKIDATSASVLASRFDVSGYPTIKILKKGQAVDYEGSRTQEEIVAKVREVSQPDWTPPPEVTLVLTKENFDEVVNDADIILVEFYAPWCGHCKKLAPEYEKAAKELSKRSPPIPLAKVDATAETDLAKRFDVSGYPTLKIFRKGRPYDYNGPREKYGIVDYMIEQSGPPSKEILTLKQVQEFLKDGDDVIIIGVFKGESDPAYQQYQDAANNLREDYKFHHTFSTEIAKFLKVSQGQLVVMQPEKFQSKYEPRSHMMDVQGSTQDSAIKDFVLKYALPLVGHRKVSNDAKRYTRRPLVVVYYSVDFSFDYRAATQFWRSKVLEVAKDFPEYTFAIADEEDYAGEVKDLGLSESGEDVNAAILDESGKKFAMEPEEFDSDTLREFVTAFKKGKLKPVIKSQPVPKNNKGPVKVVVGKTFDSIVMDPKKDVLIEFYAPWCGHCKQLEPVYNSLAKKYKGQKGLVIAKMDATANDVPSDRYKVEGFPTIYFAPSGDKKNPVKFEGGDRDLEHLSKFIEEHATKLSRTKEEL
binds | glucose-regulated protein 170 kDa (GRP170), endogenous in HEK293 (protein, UniProt Q9Y4L1 33-999) LAVMSVDLGSESMKVAIVKPGVPMEIVLNKESRRKTPVIVTLKENERFFGDSAASMAIKNPKATLRYFQHLLGKQADNPHVALYQARFPEHELTFDPQRQTVHFQISSQLQFSPEEVLGMVLNYSRSLAEDFAEQPIKDAVITVPVFFNQAERRAVLQAARMAGLKVLQLINDNTATALSYGVFRRKDINTTAQNIMFYDMGSGSTVCTIVTYQMVKTKEAGMQPQLQIRGVGFDRTLGGLEMELRLRERLAGLFNEQRKGQRAKDVRENPRAMAKLLREANRLKTVLSANADHMAQIEGLMDDVDFKAKVTRVEFEELCADLFERVPGPVQQALQSAEMSLDEIEQVILVGGATRVPRVQEVLLKAVGKEELGKNINADEAAAMGAVYQAAALSKAFKVKPFVVRDAVVYPILVEFTREVEEEPGIHSLKHNKRVLFSRMGPYPQRKVITFNRYSHDFNFHINYGDLGFLGPEDLRVFGSQNLTTVKLKGVGDSFKKYPDYESKGIKAHFNLDESGVLSLDRVESVFETLVEDSAEEESTLTKLGNTISSLFGGGTTPDAKENGTDTVQEEEESPAEGSKDEPGEQVELKEEAEAPVEDGSQPPPPEPKGDATPEGEKATEKENGDKSEAQKPSEKAEAGPEGVAPAPEGEKKQKPARKRRMVEEIGVELVVLDLPDLPEDKLAQSVQKLQDLTLRDLEKQEREKAANSLEAFIFETQDKLYQPEYQEVSTEEQREEISGKLSAASTWLEDEGVGATTVMLKEKLAELRKLCQGLFFRVEERKKWPERLSALDNLLNHSSMFLKGARLIPEMDQIFTEVEMTTLEKVINETWAWKNATLAEQAKLPATEKPVLLSKDIEAKMMALDREVQYLLNKAKFTKPRPRPKDKNGTRAEPPLNASASDQGEKVIPPAGQTEDAEPISEPEKVETGSEPGDTEPLELGGPGAEPEQKEQSTGQKRPLKNDEL

— PMC7949057, “The cytoprotective protein MANF promotes neuronal survival independently from its role as a GRP78 cofactor” (The Journal of Biological Chemistry, 2021)
